These are yes or no findings as the source states them, for the method shown. In cells and extracts the contact can be indirect. Here binding means that the protein was enriched with, or labelled near, the bait; the list need not be complete.
Biological target: mycobacterial eGFP-tagged endonuclease IV
Assay: affinity purification with mass spectrometry

B1: LigC of M. bovis BCG (enzyme, UniProt A0A1R3Y525 1-358)
chain: MQLPVMPPVSPMLAKSVTAIPPDASYEPKWDGFRSICFRDGDQVELGSRNERPMTRYFPELVAAIRAELPHRCVIDGEIIIATDHGLDFEALQQRIHPAESRVRMLADRTPASFIAFDLLALGDDDYTGRPFSERRAALVDAVTGSGADADLSIHVTPATTDMATAQRWFSEFEGAGLDGVIAKPPHITYQPDKRVMFKIKHLRTADCVVAGYRVHKSGSDAIGSLLLGLYQEDGQLASVGVIGAFPMAERRRLLTELQPLVTSFDDHPWNWAAHVAGQRTPRKNEFSRWNVGKDLSFVPLRPERVVEVRYDHMEGARFRHTAQFNRWRPDRDPRSCSYAQLERPLTVSLSDIVPGLR
Question: For B1, which binding is on record?
Answer: binds
